Tested on: VSVD51

For vanadium (V) citrate [CDOS140], the “Viral titers recovered after admixing (in words)” value was “improved or similar to the control”.

In the case of vanadium (IV) citrate [CDOS139], the “Viral titers recovered after admixing (in words)” value is reported as “improved or similar to the control”.
